Reference: the supplement of paper PMC7666118
Some of the results follow.

The chains behind the UniProt entries cited, without tags or fusion partners. Where a name states a change or a piece, a line headed by the entry shows the natural chain unless it says otherwise.
UniProt Q68EM7: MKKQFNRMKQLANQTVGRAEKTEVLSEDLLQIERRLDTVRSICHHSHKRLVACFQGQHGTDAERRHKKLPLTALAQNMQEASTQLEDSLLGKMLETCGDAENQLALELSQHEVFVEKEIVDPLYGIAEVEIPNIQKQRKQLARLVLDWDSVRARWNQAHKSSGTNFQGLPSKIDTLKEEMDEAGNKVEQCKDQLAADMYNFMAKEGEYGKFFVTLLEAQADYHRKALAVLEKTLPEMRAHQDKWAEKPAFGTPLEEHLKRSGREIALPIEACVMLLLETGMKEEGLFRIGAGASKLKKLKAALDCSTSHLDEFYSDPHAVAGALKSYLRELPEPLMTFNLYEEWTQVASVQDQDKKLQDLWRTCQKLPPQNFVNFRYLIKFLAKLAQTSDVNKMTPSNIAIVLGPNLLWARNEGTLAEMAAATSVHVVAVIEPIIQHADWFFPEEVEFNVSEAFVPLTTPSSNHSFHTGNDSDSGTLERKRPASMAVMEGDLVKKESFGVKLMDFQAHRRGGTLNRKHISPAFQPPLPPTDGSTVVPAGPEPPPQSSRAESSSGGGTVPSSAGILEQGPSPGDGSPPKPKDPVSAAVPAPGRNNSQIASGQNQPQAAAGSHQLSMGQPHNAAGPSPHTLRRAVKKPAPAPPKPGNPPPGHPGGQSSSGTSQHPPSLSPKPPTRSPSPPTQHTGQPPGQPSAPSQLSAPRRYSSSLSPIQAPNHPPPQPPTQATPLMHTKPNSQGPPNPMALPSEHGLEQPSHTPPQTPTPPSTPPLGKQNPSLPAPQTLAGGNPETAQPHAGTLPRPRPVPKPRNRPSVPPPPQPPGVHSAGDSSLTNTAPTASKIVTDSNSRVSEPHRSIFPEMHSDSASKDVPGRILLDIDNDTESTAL
UniProt Q99941: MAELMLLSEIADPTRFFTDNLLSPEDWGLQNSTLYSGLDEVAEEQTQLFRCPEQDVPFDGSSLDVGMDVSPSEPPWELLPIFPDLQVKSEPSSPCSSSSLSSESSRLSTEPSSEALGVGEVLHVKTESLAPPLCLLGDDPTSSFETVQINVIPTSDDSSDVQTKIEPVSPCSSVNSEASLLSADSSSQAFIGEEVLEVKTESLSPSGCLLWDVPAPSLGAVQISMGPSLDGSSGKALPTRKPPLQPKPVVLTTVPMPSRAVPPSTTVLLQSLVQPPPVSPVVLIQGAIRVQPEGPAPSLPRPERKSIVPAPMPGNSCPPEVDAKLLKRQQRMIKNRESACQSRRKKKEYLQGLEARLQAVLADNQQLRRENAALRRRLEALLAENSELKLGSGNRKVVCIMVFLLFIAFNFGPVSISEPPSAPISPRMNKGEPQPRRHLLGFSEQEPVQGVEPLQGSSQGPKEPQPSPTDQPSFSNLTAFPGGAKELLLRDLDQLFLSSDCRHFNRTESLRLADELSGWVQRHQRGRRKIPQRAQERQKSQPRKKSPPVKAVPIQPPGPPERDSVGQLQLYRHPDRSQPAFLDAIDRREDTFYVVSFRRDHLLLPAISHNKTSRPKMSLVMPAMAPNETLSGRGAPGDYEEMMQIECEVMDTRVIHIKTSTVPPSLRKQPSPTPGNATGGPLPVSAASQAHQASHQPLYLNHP
UniProt Q92572: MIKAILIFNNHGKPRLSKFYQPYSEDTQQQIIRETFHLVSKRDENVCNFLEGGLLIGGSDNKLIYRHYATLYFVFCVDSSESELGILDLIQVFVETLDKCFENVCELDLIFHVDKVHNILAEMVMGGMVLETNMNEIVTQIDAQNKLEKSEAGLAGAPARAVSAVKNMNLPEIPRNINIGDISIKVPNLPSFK
UniProt Q7Z2E3: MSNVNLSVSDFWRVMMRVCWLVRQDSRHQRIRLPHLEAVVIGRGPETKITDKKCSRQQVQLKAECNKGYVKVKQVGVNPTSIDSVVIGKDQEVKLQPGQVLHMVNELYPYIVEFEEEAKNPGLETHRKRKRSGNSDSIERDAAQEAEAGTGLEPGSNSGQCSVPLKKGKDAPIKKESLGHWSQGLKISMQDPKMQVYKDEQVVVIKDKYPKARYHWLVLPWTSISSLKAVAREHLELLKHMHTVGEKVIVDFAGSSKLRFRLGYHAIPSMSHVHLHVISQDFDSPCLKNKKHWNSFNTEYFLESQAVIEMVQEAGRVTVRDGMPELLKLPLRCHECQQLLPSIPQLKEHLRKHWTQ
UniProt P13798: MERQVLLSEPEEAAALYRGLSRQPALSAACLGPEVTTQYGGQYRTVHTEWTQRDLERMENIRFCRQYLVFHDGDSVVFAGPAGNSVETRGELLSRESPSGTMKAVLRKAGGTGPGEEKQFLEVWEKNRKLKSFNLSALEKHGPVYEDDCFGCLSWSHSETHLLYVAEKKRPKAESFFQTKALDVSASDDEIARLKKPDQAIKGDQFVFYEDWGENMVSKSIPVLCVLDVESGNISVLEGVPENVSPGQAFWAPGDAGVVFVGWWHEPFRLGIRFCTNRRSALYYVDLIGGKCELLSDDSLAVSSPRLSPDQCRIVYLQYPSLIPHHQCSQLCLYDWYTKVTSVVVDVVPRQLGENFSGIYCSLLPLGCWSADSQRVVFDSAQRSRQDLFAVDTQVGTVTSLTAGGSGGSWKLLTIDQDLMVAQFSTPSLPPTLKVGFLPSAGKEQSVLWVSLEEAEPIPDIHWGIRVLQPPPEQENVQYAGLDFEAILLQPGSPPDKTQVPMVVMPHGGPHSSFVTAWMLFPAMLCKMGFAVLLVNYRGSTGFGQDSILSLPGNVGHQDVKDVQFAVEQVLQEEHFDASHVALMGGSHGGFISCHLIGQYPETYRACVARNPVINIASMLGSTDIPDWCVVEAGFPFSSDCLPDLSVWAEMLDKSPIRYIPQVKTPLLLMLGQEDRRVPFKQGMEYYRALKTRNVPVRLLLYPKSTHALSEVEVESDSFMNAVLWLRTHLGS
UniProt Q9UIJ7: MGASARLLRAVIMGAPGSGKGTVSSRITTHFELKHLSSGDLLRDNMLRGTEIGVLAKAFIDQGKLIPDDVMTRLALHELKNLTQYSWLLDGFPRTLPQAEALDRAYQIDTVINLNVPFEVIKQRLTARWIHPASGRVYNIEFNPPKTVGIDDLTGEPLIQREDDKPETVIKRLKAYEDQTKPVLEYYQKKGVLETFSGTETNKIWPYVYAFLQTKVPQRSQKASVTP
UniProt P18846: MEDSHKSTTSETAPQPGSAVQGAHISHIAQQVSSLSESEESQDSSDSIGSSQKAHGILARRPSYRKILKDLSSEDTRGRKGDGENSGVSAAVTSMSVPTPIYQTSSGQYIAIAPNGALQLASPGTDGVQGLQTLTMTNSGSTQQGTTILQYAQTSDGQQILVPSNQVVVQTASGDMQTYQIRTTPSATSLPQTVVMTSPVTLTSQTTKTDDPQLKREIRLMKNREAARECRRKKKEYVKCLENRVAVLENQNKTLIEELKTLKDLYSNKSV
UniProt Q7Z5R6: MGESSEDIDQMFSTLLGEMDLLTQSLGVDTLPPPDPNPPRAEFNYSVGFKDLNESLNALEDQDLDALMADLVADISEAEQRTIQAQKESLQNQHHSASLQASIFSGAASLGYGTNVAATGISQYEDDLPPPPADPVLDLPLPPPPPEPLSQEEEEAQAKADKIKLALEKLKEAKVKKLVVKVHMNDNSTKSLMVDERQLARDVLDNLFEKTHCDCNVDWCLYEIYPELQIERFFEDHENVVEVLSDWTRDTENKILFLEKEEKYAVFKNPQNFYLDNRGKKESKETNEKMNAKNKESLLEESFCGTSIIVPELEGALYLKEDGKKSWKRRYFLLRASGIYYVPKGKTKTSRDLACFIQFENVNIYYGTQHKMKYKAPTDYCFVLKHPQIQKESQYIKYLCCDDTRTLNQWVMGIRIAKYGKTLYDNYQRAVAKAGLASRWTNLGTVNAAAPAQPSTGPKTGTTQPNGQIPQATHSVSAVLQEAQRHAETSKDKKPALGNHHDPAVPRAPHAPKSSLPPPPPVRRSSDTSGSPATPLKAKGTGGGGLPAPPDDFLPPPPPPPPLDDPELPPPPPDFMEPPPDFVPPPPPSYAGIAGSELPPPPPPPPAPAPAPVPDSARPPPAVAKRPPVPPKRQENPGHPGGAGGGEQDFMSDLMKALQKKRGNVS
UniProt O43681: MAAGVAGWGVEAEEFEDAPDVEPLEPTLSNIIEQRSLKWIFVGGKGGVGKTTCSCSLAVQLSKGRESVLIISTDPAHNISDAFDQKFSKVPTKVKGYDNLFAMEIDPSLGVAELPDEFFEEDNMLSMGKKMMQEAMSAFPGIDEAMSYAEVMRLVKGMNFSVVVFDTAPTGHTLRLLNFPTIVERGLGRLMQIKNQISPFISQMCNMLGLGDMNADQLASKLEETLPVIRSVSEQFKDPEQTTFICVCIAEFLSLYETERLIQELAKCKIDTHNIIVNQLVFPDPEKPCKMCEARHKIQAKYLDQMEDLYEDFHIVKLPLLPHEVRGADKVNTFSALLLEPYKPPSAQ
UniProt Q9UMZ2: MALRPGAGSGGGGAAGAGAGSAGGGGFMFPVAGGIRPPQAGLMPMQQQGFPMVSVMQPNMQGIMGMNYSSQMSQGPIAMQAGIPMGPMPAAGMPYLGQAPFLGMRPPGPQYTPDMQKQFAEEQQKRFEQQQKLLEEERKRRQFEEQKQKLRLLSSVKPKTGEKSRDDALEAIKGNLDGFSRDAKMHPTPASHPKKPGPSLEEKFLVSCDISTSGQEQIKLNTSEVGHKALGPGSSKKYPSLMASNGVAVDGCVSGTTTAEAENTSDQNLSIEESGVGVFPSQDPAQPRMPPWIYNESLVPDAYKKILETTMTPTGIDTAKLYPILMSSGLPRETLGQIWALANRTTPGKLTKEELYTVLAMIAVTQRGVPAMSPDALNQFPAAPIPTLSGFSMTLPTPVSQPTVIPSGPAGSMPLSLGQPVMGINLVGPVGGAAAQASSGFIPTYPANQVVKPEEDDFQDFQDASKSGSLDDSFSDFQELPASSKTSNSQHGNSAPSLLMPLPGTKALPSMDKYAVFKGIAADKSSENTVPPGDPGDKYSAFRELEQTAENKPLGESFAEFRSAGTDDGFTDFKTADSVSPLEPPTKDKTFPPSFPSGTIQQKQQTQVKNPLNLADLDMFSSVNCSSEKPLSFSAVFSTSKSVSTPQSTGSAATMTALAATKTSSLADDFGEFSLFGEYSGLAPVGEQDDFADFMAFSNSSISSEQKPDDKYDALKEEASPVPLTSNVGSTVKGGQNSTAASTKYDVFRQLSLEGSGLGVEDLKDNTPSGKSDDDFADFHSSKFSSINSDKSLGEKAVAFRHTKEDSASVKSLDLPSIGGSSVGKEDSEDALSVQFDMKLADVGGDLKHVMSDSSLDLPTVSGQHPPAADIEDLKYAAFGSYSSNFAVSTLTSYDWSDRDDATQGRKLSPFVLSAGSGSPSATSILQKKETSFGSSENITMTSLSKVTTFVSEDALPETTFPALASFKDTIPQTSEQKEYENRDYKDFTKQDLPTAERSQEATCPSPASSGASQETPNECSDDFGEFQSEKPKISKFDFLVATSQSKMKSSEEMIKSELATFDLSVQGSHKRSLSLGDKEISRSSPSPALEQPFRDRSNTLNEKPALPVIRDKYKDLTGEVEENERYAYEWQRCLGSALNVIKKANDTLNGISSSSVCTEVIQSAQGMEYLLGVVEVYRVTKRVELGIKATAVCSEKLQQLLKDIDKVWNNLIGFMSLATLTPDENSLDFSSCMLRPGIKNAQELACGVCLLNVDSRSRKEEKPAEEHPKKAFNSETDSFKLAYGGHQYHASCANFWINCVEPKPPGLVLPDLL
UniProt Q9BRR9: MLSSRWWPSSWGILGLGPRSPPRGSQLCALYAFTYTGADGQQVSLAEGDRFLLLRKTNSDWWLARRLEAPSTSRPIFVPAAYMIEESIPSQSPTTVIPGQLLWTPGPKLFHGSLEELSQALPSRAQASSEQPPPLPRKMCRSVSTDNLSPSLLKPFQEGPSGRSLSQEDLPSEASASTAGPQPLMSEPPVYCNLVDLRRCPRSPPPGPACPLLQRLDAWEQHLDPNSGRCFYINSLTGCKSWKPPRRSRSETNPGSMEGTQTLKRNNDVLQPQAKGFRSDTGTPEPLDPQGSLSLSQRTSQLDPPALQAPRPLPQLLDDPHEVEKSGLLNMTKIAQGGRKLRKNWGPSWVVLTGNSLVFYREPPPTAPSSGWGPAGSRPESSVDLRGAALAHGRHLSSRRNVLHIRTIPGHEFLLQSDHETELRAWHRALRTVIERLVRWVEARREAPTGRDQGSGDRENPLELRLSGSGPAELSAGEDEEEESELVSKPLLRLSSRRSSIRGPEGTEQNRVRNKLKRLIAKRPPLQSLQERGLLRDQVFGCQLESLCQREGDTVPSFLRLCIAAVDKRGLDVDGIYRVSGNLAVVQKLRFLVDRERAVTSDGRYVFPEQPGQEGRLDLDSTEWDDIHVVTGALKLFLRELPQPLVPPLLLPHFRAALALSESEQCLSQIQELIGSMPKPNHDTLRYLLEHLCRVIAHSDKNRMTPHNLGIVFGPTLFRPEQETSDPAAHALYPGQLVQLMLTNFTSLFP

The targets below were run with COc1ccc(Cn2ccc3cc(C)c(C(=O)NO)cc32)cc1 (assay: dose-dependent thermal stabilisation call (2D-TPP, DLPTP, 10% FDR) (binary (1 = stabilised)); higher = stabilised by the compound). Details: system: HL-60 intact cells; concentration range 0.04-10 µM.
Method: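 2D thermal proteome profiling in intact HL-60 cells treated with BRD-3811 (0, 0.04, 0.29, 2, 10 uM) for 90 min at 37 C, then heated 3 min at one of 12 temperatures (42-63.9 C). Soluble protein was quantified by TMT10 MS. The value is the DLPTP call of the paper: dose-dependent thermal stabilisation over all temperatures at 10% FDR (F-test of a dose-response against a flat model); one experiment, one call per tested protein.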

Row | Target | dose-dependent thermal stabilisation call
1 | ARHGAP17 (UniProt Q68EM7) | inactive: 0
2 | AP3B1 (UniProt O00203) | inactive: 0
3 | ATF6B (UniProt Q99941) | inactive: 0
4 | ANKS1A (UniProt Q92625) | inactive: 0
5 | APOBEC3C (UniProt Q9NRW3) | inactive: 0
6 | ARAF (UniProt P10398) | inactive: 0
7 | AP4E1 (UniProt Q9UPM8) | inactive: 0
8 | AP3S1 (UniProt Q92572) | inactive: 0
9 | APTX (UniProt Q7Z2E3) | inactive: 0
10 | ARPC5 (UniProt O15511) | inactive: 0
11 | APEH (UniProt P13798) | inactive: 0
12 | ANXA1 (UniProt P04083) | inactive: 0
13 | ASXL1 (UniProt Q8IXJ9) | inactive: 0
14 | ALG5 (UniProt Q9Y673) | inactive: 0
15 | AGL (UniProt P35573) | inactive: 0
16 | AGPS (UniProt O00116) | inactive: 0
17 | ALDH3A2 (UniProt P51648) | active: 1
18 | AGPAT2 (UniProt O15120) | inactive: 0

Row | Target | dose-dependent thermal stabilisation call
19 | AK3 (UniProt Q9UIJ7) | inactive: 0
20 | ATG2A (UniProt Q2TAZ0) | inactive: 0
21 | ATF1 (UniProt P18846) | inactive: 0
22 | ARIH1 (UniProt Q9Y4X5) | inactive: 0
23 | AHNAK (UniProt Q09666) | inactive: 0
24 | APBB1IP (UniProt Q7Z5R6) | inactive: 0
25 | ARHGEF6 (UniProt Q15052) | inactive: 0
26 | APOO (UniProt Q9BUR5) | inactive: 0
27 | ARPP-19 | inactive: 0
28 | ASPM (UniProt Q8IZT6) | inactive: 0
29 | ANAPC7 (UniProt Q9UJX3) | inactive: 0
30 | ARHGDIB (UniProt P52566) | inactive: 0
31 | ASNA1 (UniProt O43681) | inactive: 0
32 | ALDH4A1 (UniProt P30038) | inactive: 0
33 | AP1GBP1 (UniProt Q9UMZ2) | inactive: 0
34 | ARL2BP (UniProt Q9Y2Y0) | inactive: 0
35 | AP2M1 (UniProt Q96CW1) | inactive: 0
36 | ARHGAP9 (UniProt Q9BRR9) | inactive: 0

Taken from above.
Entry for AP4E1 (UniProt Q9UPM8) under dose-dependent thermal stabilisation call: inactive: 0
Entry for ALDH3A2 (UniProt P51648) under dose-dependent thermal stabilisation call: active: 1
